This assay in a line: qHTS Assay for Lipid Storage Modulators in Drosophila S3 Cells.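 As to cell number change: cells counted by Cell Tracker Red CMTPX staining in the red channel.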 Conditions: BODIPY lipid droplet fluorescence, 18-24 h; for cell number change: measured here: cell count max response, cells fed with added oleic acid. In short, it runs like this:
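Drosophila S3 cells loaded with oleic acid (400 uM, as added) and compounds at several concentrations; lipid droplets imaged by 488-nm laser-scanning cytometry, 500–530 nm intensity and object ratio to cell channel. Percent activity normalized to 20 uM Triacsin C.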

The mark [1] stands for this setting: measured here: cell number channel AC50, cells fed with added oleic acid.
Where [2] appears, read: measured here: lipid fluorescence (Fed channel) AC50, cells fed with added oleic acid.

Some of the results follow. These are further read-outs of the screen, such as a control signal, another cell line or another target. No call is given for them. The list favours compounds with an active or inconclusive main result. The note in brackets gives the kind of curve behind each potency; many fits are weak.

A word on the AC50: it is the midpoint of the concentration-response curve, whichever way the signal moves. A high value points to activity only at high concentration.

Take `Cc1cc(-n2nc(C)cc2C)n2nc(C)c(-c3ccccc3)c2n1`: the cell number change came to 63.9%. Further, the AC50 under setting [1] was 9.2 µM [rising, partial curve]. Moreover, under setting [2], the AC50 was 4.11 µM [rising, partial curve].
As to `COc1cc(C(=O)NC(=S)Nc2nc(-c3ccc(F)cc3)cs2)cc(OC)c1OC`, the cell number change was 6.99%. Moreover, under setting [2], the AC50 is 0.517 µM [rising, partial curve].
Take `O=C(CSc1nccn(-c2ccc(Br)cc2)c1=O)NCc1ccccc1`: the AC50 under setting [1] is 4.61 µM [rising, single point].
Regarding `CCOC(=O)C1=C(C)N=c2s/c(=C/c3cccc([N+](=O)[O-])c3O)c(=O)n2C1c1ccccc1` (centres undefined), the cell number change is -15.5%. The AC50 under setting [2] was 29.1 µM [falling, single point].
For the compound `N/C(=N\OC(=O)c1cc(-c2ccccc2)nc2ccccc12)c1ccncc1`, the cell number change was -11.9%. Also, the AC50 under setting [1] was 0.517 µM [falling, single point].
Take `Cc1ccccc1OCc1ccc(C(=O)N2CCOCC2)o1`: the cell number change is 18.9%. In addition, the half-maximal activity concentration (AC50) under setting [2] is 29.1 µM [rising, single point].
Take `CCN(CC)c1ccc2nc3ccccc3[n+](CC)c2c1`: the cell number change was -73.1%. For the same compound, the AC50 under setting [1] is 25.9 µM [falling, partial curve, poor fit]. Moreover, the AC50 under setting [2] was 0.731 µM [falling, full curve].
As for `Cc1ccc(N2CC(NC(=O)C(=O)c3c(C)[nH]c4ccccc34)CC2=O)cc1` (centres undefined), the cell number change worked out at 28.3%.
For the compound `COc1cc(CNCCc2ccccc2)ccc1OCC(N)=O`, the cell number change is -15.4%. The AC50 under setting [2] was 1.3 µM [falling, partial curve].
Consider `CN(C)c1ccc(C(CNS(=O)(=O)c2cccc([N+](=O)[O-])c2)N2CCOCC2)cc1` (centres undefined), for which the cell number change came to 1.58%. For the same compound, the AC50 under setting [2] is 18.4 µM [rising, partial curve].
Take `COc1ccccc1NC(=O)C(C)OC(=O)CSCC(=O)Nc1ccc(C)cc1C` (centres undefined): the cell number change worked out at 26.2%.
Regarding `Cc1ccc2nccc(C(=O)N3CCCC(N4CCN(c5ccc(F)cc5)CC4)C3)c2c1` (centres undefined), the cell number change was 30%. The AC50 under setting [1] is 3.26 µM [rising, full curve, poor fit]. For the same compound, the AC50 under setting [2] is 8.2 µM [rising, partial curve].
For the compound `O=C(CS(=O)(=O)c1c[nH]c2ccccc12)N1CCCc2ccccc21`, the cell number change is 13.5%. Besides, the AC50 under setting [2] is 0.651 µM [falling, single point].
Turning to `CCOC(=O)N1CCN(C(=O)c2nn(-c3ccc(C)cc3)c(=O)c3c2c2ccccc2n3C)CC1`, the cell number change was -9.4%. Also, under setting [2], the AC50 was 3.26 µM [falling, single point].
As for `O=C(O)c1ccccc1-c1ccc(/C=c2\sc3nc4cc(Br)cnc4n3c2=O)o1`, the cell number change was -89.6%. Besides, the AC50 under setting [1] was 20.6 µM [falling, single point].
As for `CCN(C(=O)Cn1ccc(C(F)(F)F)n1)c1c(N)n(Cc2ccccc2)c(=O)[nH]c1=O`, the cell number change amounted to 8.63%. Besides, under setting [2], the AC50 was 0.206 µM [falling, full curve, poor fit].
As for `CCOc1cc(C(=O)CCC(=O)OCC(=O)Nc2ccc(C)c(S(=O)(=O)N(C)C)c2)ccc1O`, the cell number change turned out to be 49%. Besides, the AC50 under setting [1] was 0.92 µM [rising, full curve, poor fit].
In the case of `CCC1=NN2C(=N)/C(=C\c3cccn3-c3c(C)cccc3C)C(=O)N=C2S1`, the cell number change is -2.7%. Besides, the AC50 under setting [2] is 2.91 µM [falling, full curve, poor fit].
As for `N#Cc1ccccc1NC(=O)CNc1cc(S(=O)(=O)N2CCOCC2)ccc1NCC1CCCO1` (centres undefined), the cell number change was 89.8%. For the same compound, under setting [1], the half-maximal activity concentration (AC50) is 29.1 µM [rising, single point].
Regarding `CC1CCCN(C(=O)C2CCN(S(=O)(=O)c3cccc4nonc34)CC2)C1` (centres undefined), the cell number change was -17.5%. In addition, the AC50 under setting [2] was 29.1 µM [rising, single point].
As to `CCCCC1(O)CC(C(F)(F)F)=NN1C(=O)COc1ccccc1` (centres undefined), the cell number change was -45%. For the same compound, the AC50 under setting [1] is 16.4 µM [falling, single point]. Besides, under setting [2], the AC50 is 29.1 µM [falling, single point].
Turning to `Cc1ncc([N+](=O)[O-])n1CC(=O)NC1CCCCC1`, the cell number change is -5.4%. In addition, the AC50 under setting [1] was 6.51 µM [falling, single point].
As to `CC(=O)Nc1ccc(S(=O)(=O)N2CCCC3CCCCC32)cc1` (centres undefined), the cell number change turned out to be 38.1%. Moreover, under setting [1], the AC50 was 0.92 µM [rising, full curve, poor fit]. Moreover, the AC50 under setting [2] is 18.4 µM [rising, single point].
Turning to `COc1ccc(S(=O)(=O)N(C)CC(=O)O)c2ccccc12`, the cell number change was -4.5%. The AC50 under setting [2] is 0.103 µM [falling, full curve, poor fit].
On to `COc1ccc(CCNC(=O)C23CCC(C)(C(=O)C2Br)C3(C)C)cc1OC` (centres undefined), for which the cell number change was -1.28%. Besides, the AC50 under setting [2] is 7.31 µM [falling, partial curve, poor fit].
`CN(Cc1ccccc1Cl)C(=O)CCNC(=O)c1ccco1`: the cell number change was determined as 750%. Besides, the AC50 under setting [1] was 1.84 µM [rising, full curve].
`Cc1onc(-c2ccccc2)c1C(=O)OCC(=O)NC(C)c1ccc(Cl)cc1` (centres undefined): the cell number change was found to be 19.6%. The AC50 under setting [2] is 0.651 µM [rising, single point].
`C=C(C)CN(CC)c1nc(N)c(C#N)c(CC#N)c1C#N`: the cell number change is 0.488%. Further, the concentration at half-maximal activity (AC50) under setting [2] is 1.3 µM [falling, partial curve].
Regarding `Cc1ccc(S(=O)(=O)NCc2ccc(C(=O)N3CCc4ccccc4C3)cc2)cc1`, the cell number change was -1.09%. Under setting [2], the AC50 was 0.731 µM [rising, full curve, poor fit].
In the case of `C=CCn1c2ccccc2c(=O)c2cc(C#Cc3ccccn3)ccc21`, the cell number change came out at 12.2%. In addition, the AC50 under setting [2] was 0.00651 µM [falling, full curve, poor fit].
As for `COC(=O)C1=C(C)Nc2[nH]c(=S)[nH]c(=O)c2C1c1ccc(O)cc1` (centres undefined), the cell number change worked out at 12.9%. Moreover, under setting [2], the AC50 is 6.51 µM [falling, single point].
`COC(=O)c1ccc(COC(=O)CCNS(=O)(=O)c2ccc(C)c(C)c2)cc1`: the cell number change was -13.5%.
For `CC(C)c1ccc(/C=N/n2c(-c3ccccc3)n[nH]c2=S)cc1`, the cell number change was -37.6%. Under setting [1], the AC50 was 20.6 µM [falling, single point]. Further, under setting [2], the AC50 is 29.1 µM [falling, single point].
As for `CCC(C)NC(=O)CSc1n[nH]c(=O)n1CCc1ccccc1` (centres undefined), the cell number change came to 4.35%.
For `COc1ccc(-c2cc(C(F)(F)F)n3nc(C(=O)N4CCOCC4)c(Cl)c3n2)cc1`, the cell number change came out at 2.78%. Under setting [2], the AC50 was 2.06 µM [rising, partial curve].
Turning to `Cc1cc(C)cc(NC(=O)NN2C(C)CCCC2C)c1` (centres undefined), the cell number change is -33.7%. Besides, the AC50 under setting [1] is 29.1 µM [falling, single point]. In addition, under setting [2], the AC50 is 29.1 µM [falling, single point].

The values are drawn from PubChem BioAssay AID2685 (National Center for Advancing Translational Sciences (NCATS), 2010).
